Source: PubChem BioAssay AID256 (DTP/NCI, 2004)
The list is a part of this screen's results and no random one: it is rich in T/C values a quarter to a half above the control, in often repeated tests (any T/C) and in doses without a T/C. Other doses and runs of a compound stand elsewhere. T/C is the treated group as % of the vehicle group. Some doses have a count of surviving animals in place of a T/C: the source files T/C as zero there, which appears to mark a toxic dose or a test without result, not a measured value. Some survivor counts are full or nearly so, which does not show that the dose was tolerated: the source hardly ever lists a survival T/C far under the control, and the zero likely stands for such cases as well. Counts of survivors are from the toxicity check (mostly the fifth day) where no day follows; animals may have died later. Schedule codes are those of the source, taken here to give the interval after Q, in days (D) or hours (H), and the number of doses after X. Some entries were tested several times; the results are listed from low to high. For survival time, this PubChem deposit counts one and a half times the control or more as active, and values a quarter to a half above the control carry no call in these data; other NCI protocols may use other cut-offs. Some schedules carry Z or #; the key to these is not given. Some T/C values are followed by the survivors on the day toxicity was checked, most often the fifth; where none is given, no animal had died by that day.

Tested on: CD2F1 mice, L1210 leukemia ip, survival T/C
Experiment: NCI In Vivo Anticancer Drug Screen. Data for tumor model L1210 Leukemia (intraperitoneal) in CD2F1 (CDF1) mice
Settings: higher T/C = longer survival
Outline: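 Antitumor effect is scored in animals hosting a serially transplanted tumor. Values compare compound-dosed animals against vehicle-only controls as a simple quotient.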

[1] = T/C endpoint: mean survival time, dose: 200.0 mg/kg/injection, schedule: Q04DX002 (ip), vehicle: saline with Tween-80
[2] = T/C endpoint: mean survival time, dose: 400.0 mg/kg/injection, schedule: Q04DX002 (ip), vehicle: saline with Tween-80
[3] = T/C endpoint: mean survival time, dose: 400.0 mg/kg/injection, schedule: Q04DX003 (ip), vehicle: saline with Tween-80
[4] = T/C endpoint: mean survival time, dose: 400.0 mg/kg/injection, schedule: Q01DX009 (ip), vehicle: saline with Tween-80
[5] = T/C endpoint: mean survival time, dose: 100.0 mg/kg/injection, schedule: Q04DX003 (ip), vehicle: saline with Tween-80
[6] = T/C endpoint: mean survival time, dose: 200.0 mg/kg/injection, schedule: Q04DX003 (ip), vehicle: saline with Tween-80
[7] = T/C endpoint: mean survival time, dose: 400.0 mg/kg/injection, schedule: Q04DX003 (ip), vehicle: saline
[8] = T/C endpoint: mean survival time, dose: 200.0 mg/kg/injection, schedule: Q01DX009 (ip), vehicle: water
[9] = T/C endpoint: mean survival time, dose: 400.0 mg/kg/injection, schedule: Q01DX001 (ip), vehicle: saline with Tween-80

What does the source list for `CCCCCCCCCCCCN1C(C)=CS/C1=C\C=C\c1scc(C)[n+]1CCCCCCCCCCCC`?
T/C (T/C endpoint: mean survival time, dose: 1.56 mg/kg/injection, schedule: Q01DX009 (ip), vehicle: saline with Tween-80): 125 % of control; T/C (T/C endpoint: mean survival time, dose: 3.12 mg/kg/injection, schedule: Q01DX009 (ip), vehicle: saline with Tween-80): 141 % of control; survivor count (T/C endpoint: mean survival time, dose: 6.25 mg/kg/injection, schedule: Q01DX009 (ip), vehicle: saline with Tween-80): 5 of 6; survivor count (T/C endpoint: mean survival time, dose: 12.5 mg/kg/injection, schedule: Q01DX009 (ip), vehicle: saline with Tween-80): 5 of 6; survivor count (T/C endpoint: mean survival time, dose: 25.0 mg/kg/injection, schedule: Q01DX009 (ip), vehicle: saline with Tween-80): 0 of 6

What does the source list for `COc1csn[n+]1-c1ccc(C)cc1`?
survivor count (T/C endpoint: mean survival time, dose: 150.0 mg/kg/injection, schedule: Q01DX001 (ip), vehicle: saline): 2 of 6; survivor count (T/C endpoint: mean survival time, dose: 300.0 mg/kg/injection, schedule: Q01DX001 (ip), vehicle: saline): 0 of 6

Which survivor count (T/C endpoint: mean survival time, dose: 50.0 mg/kg/injection, schedule: Q04DX002 (ip), vehicle: saline with Tween-80) does the source give for `O=C1N(c2ccccc2)SN2C3C=CC(C4CC43)N12` (centres undefined) here?
Its survivor count is 0 of 3.

And the survivor count (T/C endpoint: mean survival time, dose: 100.0 mg/kg/injection, schedule: Q04DX002 (ip), vehicle: saline with Tween-80)?
Its survivor count is 0 of 3.

What about the survivor count [1] of the same molecule?
The survivor count was 0 of 3.

What about the survivor count [2] of the same molecule?
The survivor count was 0 of 3.

For `CN(C)S(=O)(=O)Oc1cccc(N)c1`, which survivor count [3] is on record?
Its survivor count is 5 of 6.

Which survivor count (T/C endpoint: mean survival time, dose: 50.0 mg/kg/injection, schedule: Q01DX009 (ip), vehicle: saline with Tween-80) does the source give for `OCN(CO)c1nc(N(CO)CO)nc(N(CO)CO)n1` here?
Its survivor count is 5 of 10.

What about the survivor count (T/C endpoint: mean survival time, dose: 100.0 mg/kg/injection, schedule: Q01DX009 (ip), vehicle: saline with Tween-80) of the same molecule?
Its survivor count is 0 of 10.

Which survivor count [4] does the source give for `COc1cc(C(=O)N/N=C/c2ccc(N(C)C)cc2)cc(OC)c1OC` here?
The survivor count was 0 of 6.

How did the survivor count [3] turn out when `Oc1c(Br)cc(Br)c(O)c1Br` was run?
Its survivor count is 2 of 6.

With `[Cl][Pt+2][Cl].[NH-]C(C(=O)O)c1ccccc1.[NH-]C(C(=O)O)c1ccccc1` (centres undefined) as the molecule, how does the survivor count (T/C endpoint: median survival time, dose: 200.0 mg/kg/injection, schedule: Q04DX003 (ip), vehicle: saline) read?
The survivor count was 5 of 6.

`CCN(CC)CCNc1cc(C)nc(/N=C(\N)Nc2ccc(OCc3ccccc3)cc2)n1` was tested. Which survivor count [5] did it give?
The survivor count was 1 of 6.

And the survivor count [6]?
Its survivor count is 0 of 6.

And the survivor count [3]?
The survivor count was 0 of 6.

Which survivor count (T/C endpoint: mean survival time, dose: 400.0 mg/kg/injection, schedule: Q01DX009 (ip), vehicle: saline) does the source give for `N#CN1CCOCC1` here?
The survivor count was 0 of 6.

What about the survivor count [7] of the same molecule?
Its survivor count is 0 of 6.

How did the survivor count (T/C endpoint: mean survival time, dose: 0.63 mg/kg/injection, schedule: Q04DX003 (ip), vehicle: saline with Tween-80) turn out when `c1ccc([P+](Cc2ccc(C[P+](c3ccccc3)(c3ccccc3)c3ccccc3)cc2)(c2ccccc2)c2ccccc2)cc1` was run?
Its survivor count is 6 of 6.

And the survivor count (T/C endpoint: mean survival time, dose: 1.25 mg/kg/injection, schedule: Q04DX003 (ip), vehicle: saline with Tween-80)?
The survivor count was 2 of 6.

And the survivor count (T/C endpoint: mean survival time, dose: 2.5 mg/kg/injection, schedule: Q04DX003 (ip), vehicle: saline with Tween-80)?
Its survivor count is 0 of 6.

What about the survivor count (T/C endpoint: mean survival time, dose: 5.0 mg/kg/injection, schedule: Q04DX003 (ip), vehicle: saline with Tween-80) of the same molecule?
The survivor count was 0 of 6.

How did the T/C (T/C endpoint: mean survival time, dose: 400.0 mg/kg/injection, schedule: Q01DX001 (ip), vehicle: saline) turn out when `CCCCOc1c(OCCCC)c(=O)c1=O` was run?
Its T/C is 129 % of control [4 of 6 alive].

For `COC1(c2ccco2)OC1(C)C` (centres undefined), which survivor count (T/C endpoint: mean survival time, dose: 100.0 mg/kg/injection, schedule: Q04DX003 (ip), vehicle: saline sonified) is on record?
The survivor count was 0 of 6.

What about the survivor count (T/C endpoint: mean survival time, dose: 200.0 mg/kg/injection, schedule: Q04DX003 (ip), vehicle: saline sonified) of the same molecule?
Its survivor count is 0 of 6.

And the survivor count (T/C endpoint: mean survival time, dose: 400.0 mg/kg/injection, schedule: Q04DX003 (ip), vehicle: saline sonified)?
Its survivor count is 0 of 6.

Which results are given for `NC1CCCCC1N.O=C([O-])c1ccc(N=Nc2cccc([N+](=O)[O-])c2)cc1O.O=C([O-])c1ccc(N=Nc2cccc([N+](=O)[O-])c2)cc1O.[Pt+4]`?
survivor count (T/C endpoint: median survival time, dose: 50.0 mg/kg/injection, schedule: Q04DX003 (ip), vehicle: saline with Tween-80): 2 of 6; survivor count (T/C endpoint: median survival time, dose: 100.0 mg/kg/injection, schedule: Q04DX003 (ip), vehicle: saline with Tween-80): 0 of 6 and 4 of 6; survivor count (T/C endpoint: median survival time, dose: 200.0 mg/kg/injection, schedule: Q04DX003 (ip), vehicle: saline with Tween-80): 0 of 6

How did the T/C (T/C endpoint: mean survival time, dose: 200.0 mg/kg/injection, schedule: Q#A X018 (ip), vehicle: saline) turn out when `CC(CC(=O)Nc1ccc(S(=O)(=O)F)cc1)c1ccc(N2C(N)=NC(N)=NC2(C)C)cc1` (centres undefined) was run?
The T/C was 143 % of control.

`CC(=O)c1ccc[n+](C)c1` was tested. Which survivor count [7] did it give?
Its survivor count is 1 of 6.

Which survivor count (T/C endpoint: mean survival time, dose: 25.0 mg/kg/injection, schedule: Q01DX001 (ip), vehicle: Klucel (hydroxypropylcellulose) (HPC)) does the source give for `O=C1C=CC(=O)N1c1ccc(Cl)cc1` here?
The survivor count was 8 of 10.

What about the survivor count (T/C endpoint: mean survival time, dose: 25.0 mg/kg/injection, schedule: Q04DX003 (ip), vehicle: Klucel (hydroxypropylcellulose) (HPC)) of the same molecule?
Its survivor count is 4 of 10.

`CO[C@]12[C@@H](COC(N)=O)C3=C(C(=O)C(C)=C(NCC4CCCO4)C3=O)N1C[C@@H]1[C@H]2N1C` (some centres undefined) was tested. Which T/C (T/C endpoint: mean survival time, dose: 50.0 mg/kg/injection, schedule: Q01DX001 (ip), vehicle: distilled water + Tween-80) did it give?
Its T/C is 146 % of control.

What about the T/C (T/C endpoint: mean survival time, dose: 96.0 mg/kg/injection, schedule: Q01DX001 (ip), vehicle: distilled water + Tween-80) of the same molecule?
The T/C was 132 % of control.

What about the survivor count (T/C endpoint: mean survival time, dose: 200.0 mg/kg/injection, schedule: Q01DX001 (ip), vehicle: distilled water + Tween-80) of the same molecule?
Its survivor count is 1 of 6.

For `COC1NC(=O)NC(=O)C1=[N+]=[N-]` (centres undefined), which T/C (T/C endpoint: mean survival time, dose: 5.0 mg/kg/injection, schedule: Q01DX009 (ip), vehicle: saline with Tween-80) is on record?
Its T/C is 135 % of control.

And the T/C (T/C endpoint: mean survival time, dose: 6.6 mg/kg/injection, schedule: Q01DX009 (ip), vehicle: saline with Tween-80)?
Its T/C is 127 % of control.

And the T/C (T/C endpoint: mean survival time, dose: 10.0 mg/kg/injection, schedule: Q01DX009 (ip), vehicle: saline with Tween-80, evaluated on day 20)?
The T/C was 146 % of control.

What about the T/C (T/C endpoint: mean survival time, dose: 10.0 mg/kg/injection, schedule: Q01DX009 (ip), vehicle: saline with Tween-80, evaluated on day 30) of the same molecule?
The T/C was 142 % of control.

And the survivor count (T/C endpoint: mean survival time, dose: 15.0 mg/kg/injection, schedule: Q01DX009 (ip), vehicle: saline with Tween-80)?
The survivor count was 3 of 6.

What about the survivor count [5] of the same molecule?
The survivor count was 0 of 6.

What about the survivor count [6] of the same molecule?
Its survivor count is 0 of 6.

And the survivor count [3]?
Its survivor count is 0 of 6.

How did the survivor count [8] turn out when `CC(CC(C(=O)O)C(=O)O)C(=O)O` (centres undefined) was run?
Its survivor count is 6 of 6.

What does the source list for `Cc1ccc(NNC(N)=O)cc1`?
survivor count (T/C endpoint: mean survival time, dose: 100.0 mg/kg/injection, schedule: Q01DX001 (ip), vehicle: Klucel (hydroxypropylcellulose) (HPC)): 1 of 3; survivor count (T/C endpoint: mean survival time, dose: 200.0 mg/kg/injection, schedule: Q01DX001 (ip), vehicle: Klucel (hydroxypropylcellulose) (HPC)): 0 of 3; survivor count (T/C endpoint: mean survival time, dose: 400.0 mg/kg/injection, schedule: Q01DX001 (ip), vehicle: Klucel (hydroxypropylcellulose) (HPC)): 0 of 3

How did the survivor count [4] turn out when `O=C(O)C1C2CCCCC2=C2CCCCC2C1C(=O)O` (centres undefined) was run?
Its survivor count is 0 of 6.

For `CSc1ccc(C)cn1` (tested in a mixture with another compound), which survivor count [4] is on record?
The survivor count was 0 of 6.

What does the source list for `CCC(=O)OC1(c2ccccc2)CCN(CCCc2ccccc2Cl)CC1`?
T/C (T/C endpoint: mean survival time, dose: 12.5 mg/kg/injection, schedule: Q04DX002 (ip), vehicle: saline with Tween-80): 128 % of control; survivor count (T/C endpoint: mean survival time, dose: 200.0 mg/kg/injection, schedule: Q01DX001 (ip), vehicle: saline with Tween-80): 0 of 6; survivor count [9]: 0 of 6

How did the survivor count [3] turn out when `Cc1cc(Cl)c(OCC(=O)O)c(Cl)c1` was run?
The survivor count was 5 of 6.

For `CCCCN1C(=O)N(c2ccc(OCC)cc2)C2N(CCCC)C1C(C)(C)C2(C)C` (centres undefined), which survivor count [1] is on record?
The survivor count was 0 of 3.

What about the survivor count [2] of the same molecule?
Its survivor count is 0 of 3.

Which survivor count [8] does the source give for `Cc1c[n+]([O-])ccc1Br` here?
Its survivor count is 0 of 6.

What about the survivor count (T/C endpoint: mean survival time, dose: 400.0 mg/kg/injection, schedule: Q01DX009 (ip), vehicle: water) of the same molecule?
Its survivor count is 0 of 6.

Which results are given for `Cc1cc(C)c(S(=O)(=O)F)cc1C(=O)O`?
survivor count [9]: 3 of 6; survivor count [4]: 1 of 3
